The source of these data is US6562464B1, “Utilization of phenylglyoxalic acid esters as photoinitiators” (BASF Aktiengesellschaft, priority 1999, dated 2003).

Series [1] in a line: Pencil hardness of UV-cured film. The conditions noted are these: 4 parts photoinitiator in 96 parts Laromer LR 8987; film on glass, 50 μm or 100 μm, cured at 10 m/min under air.
Series [2] is described as follows: Erichsen indentation of UV-cured film, DIN EN ISO 1520. The conditions noted are these: 4 parts photoinitiator in 96 parts Laromer LR 8987; film on glass, 50 μm or 100 μm, cured at 10 m/min under air.

With `O=C(OC1CCC(OC(=O)C(=O)c2ccccc2)CC1)C(=O)c1ccccc1` (centres unmarked) [1,4-cyclohexanediol di(phenylglyoxylate)], in series [1], the Pencil hardness is listed as 2H. Also, the “Erichsen indentation in accordance with DIN EN ISO 1520” value in series [2] is reported as “about 0.6 mm”.
